In PMC12174314 one finds binding data, which are given here for one molecule.

Protein sequences, listed by entry. Tags and fused reporters are not part of them. Residues count along the entry.
UniProt Q07954, residues 20-4544: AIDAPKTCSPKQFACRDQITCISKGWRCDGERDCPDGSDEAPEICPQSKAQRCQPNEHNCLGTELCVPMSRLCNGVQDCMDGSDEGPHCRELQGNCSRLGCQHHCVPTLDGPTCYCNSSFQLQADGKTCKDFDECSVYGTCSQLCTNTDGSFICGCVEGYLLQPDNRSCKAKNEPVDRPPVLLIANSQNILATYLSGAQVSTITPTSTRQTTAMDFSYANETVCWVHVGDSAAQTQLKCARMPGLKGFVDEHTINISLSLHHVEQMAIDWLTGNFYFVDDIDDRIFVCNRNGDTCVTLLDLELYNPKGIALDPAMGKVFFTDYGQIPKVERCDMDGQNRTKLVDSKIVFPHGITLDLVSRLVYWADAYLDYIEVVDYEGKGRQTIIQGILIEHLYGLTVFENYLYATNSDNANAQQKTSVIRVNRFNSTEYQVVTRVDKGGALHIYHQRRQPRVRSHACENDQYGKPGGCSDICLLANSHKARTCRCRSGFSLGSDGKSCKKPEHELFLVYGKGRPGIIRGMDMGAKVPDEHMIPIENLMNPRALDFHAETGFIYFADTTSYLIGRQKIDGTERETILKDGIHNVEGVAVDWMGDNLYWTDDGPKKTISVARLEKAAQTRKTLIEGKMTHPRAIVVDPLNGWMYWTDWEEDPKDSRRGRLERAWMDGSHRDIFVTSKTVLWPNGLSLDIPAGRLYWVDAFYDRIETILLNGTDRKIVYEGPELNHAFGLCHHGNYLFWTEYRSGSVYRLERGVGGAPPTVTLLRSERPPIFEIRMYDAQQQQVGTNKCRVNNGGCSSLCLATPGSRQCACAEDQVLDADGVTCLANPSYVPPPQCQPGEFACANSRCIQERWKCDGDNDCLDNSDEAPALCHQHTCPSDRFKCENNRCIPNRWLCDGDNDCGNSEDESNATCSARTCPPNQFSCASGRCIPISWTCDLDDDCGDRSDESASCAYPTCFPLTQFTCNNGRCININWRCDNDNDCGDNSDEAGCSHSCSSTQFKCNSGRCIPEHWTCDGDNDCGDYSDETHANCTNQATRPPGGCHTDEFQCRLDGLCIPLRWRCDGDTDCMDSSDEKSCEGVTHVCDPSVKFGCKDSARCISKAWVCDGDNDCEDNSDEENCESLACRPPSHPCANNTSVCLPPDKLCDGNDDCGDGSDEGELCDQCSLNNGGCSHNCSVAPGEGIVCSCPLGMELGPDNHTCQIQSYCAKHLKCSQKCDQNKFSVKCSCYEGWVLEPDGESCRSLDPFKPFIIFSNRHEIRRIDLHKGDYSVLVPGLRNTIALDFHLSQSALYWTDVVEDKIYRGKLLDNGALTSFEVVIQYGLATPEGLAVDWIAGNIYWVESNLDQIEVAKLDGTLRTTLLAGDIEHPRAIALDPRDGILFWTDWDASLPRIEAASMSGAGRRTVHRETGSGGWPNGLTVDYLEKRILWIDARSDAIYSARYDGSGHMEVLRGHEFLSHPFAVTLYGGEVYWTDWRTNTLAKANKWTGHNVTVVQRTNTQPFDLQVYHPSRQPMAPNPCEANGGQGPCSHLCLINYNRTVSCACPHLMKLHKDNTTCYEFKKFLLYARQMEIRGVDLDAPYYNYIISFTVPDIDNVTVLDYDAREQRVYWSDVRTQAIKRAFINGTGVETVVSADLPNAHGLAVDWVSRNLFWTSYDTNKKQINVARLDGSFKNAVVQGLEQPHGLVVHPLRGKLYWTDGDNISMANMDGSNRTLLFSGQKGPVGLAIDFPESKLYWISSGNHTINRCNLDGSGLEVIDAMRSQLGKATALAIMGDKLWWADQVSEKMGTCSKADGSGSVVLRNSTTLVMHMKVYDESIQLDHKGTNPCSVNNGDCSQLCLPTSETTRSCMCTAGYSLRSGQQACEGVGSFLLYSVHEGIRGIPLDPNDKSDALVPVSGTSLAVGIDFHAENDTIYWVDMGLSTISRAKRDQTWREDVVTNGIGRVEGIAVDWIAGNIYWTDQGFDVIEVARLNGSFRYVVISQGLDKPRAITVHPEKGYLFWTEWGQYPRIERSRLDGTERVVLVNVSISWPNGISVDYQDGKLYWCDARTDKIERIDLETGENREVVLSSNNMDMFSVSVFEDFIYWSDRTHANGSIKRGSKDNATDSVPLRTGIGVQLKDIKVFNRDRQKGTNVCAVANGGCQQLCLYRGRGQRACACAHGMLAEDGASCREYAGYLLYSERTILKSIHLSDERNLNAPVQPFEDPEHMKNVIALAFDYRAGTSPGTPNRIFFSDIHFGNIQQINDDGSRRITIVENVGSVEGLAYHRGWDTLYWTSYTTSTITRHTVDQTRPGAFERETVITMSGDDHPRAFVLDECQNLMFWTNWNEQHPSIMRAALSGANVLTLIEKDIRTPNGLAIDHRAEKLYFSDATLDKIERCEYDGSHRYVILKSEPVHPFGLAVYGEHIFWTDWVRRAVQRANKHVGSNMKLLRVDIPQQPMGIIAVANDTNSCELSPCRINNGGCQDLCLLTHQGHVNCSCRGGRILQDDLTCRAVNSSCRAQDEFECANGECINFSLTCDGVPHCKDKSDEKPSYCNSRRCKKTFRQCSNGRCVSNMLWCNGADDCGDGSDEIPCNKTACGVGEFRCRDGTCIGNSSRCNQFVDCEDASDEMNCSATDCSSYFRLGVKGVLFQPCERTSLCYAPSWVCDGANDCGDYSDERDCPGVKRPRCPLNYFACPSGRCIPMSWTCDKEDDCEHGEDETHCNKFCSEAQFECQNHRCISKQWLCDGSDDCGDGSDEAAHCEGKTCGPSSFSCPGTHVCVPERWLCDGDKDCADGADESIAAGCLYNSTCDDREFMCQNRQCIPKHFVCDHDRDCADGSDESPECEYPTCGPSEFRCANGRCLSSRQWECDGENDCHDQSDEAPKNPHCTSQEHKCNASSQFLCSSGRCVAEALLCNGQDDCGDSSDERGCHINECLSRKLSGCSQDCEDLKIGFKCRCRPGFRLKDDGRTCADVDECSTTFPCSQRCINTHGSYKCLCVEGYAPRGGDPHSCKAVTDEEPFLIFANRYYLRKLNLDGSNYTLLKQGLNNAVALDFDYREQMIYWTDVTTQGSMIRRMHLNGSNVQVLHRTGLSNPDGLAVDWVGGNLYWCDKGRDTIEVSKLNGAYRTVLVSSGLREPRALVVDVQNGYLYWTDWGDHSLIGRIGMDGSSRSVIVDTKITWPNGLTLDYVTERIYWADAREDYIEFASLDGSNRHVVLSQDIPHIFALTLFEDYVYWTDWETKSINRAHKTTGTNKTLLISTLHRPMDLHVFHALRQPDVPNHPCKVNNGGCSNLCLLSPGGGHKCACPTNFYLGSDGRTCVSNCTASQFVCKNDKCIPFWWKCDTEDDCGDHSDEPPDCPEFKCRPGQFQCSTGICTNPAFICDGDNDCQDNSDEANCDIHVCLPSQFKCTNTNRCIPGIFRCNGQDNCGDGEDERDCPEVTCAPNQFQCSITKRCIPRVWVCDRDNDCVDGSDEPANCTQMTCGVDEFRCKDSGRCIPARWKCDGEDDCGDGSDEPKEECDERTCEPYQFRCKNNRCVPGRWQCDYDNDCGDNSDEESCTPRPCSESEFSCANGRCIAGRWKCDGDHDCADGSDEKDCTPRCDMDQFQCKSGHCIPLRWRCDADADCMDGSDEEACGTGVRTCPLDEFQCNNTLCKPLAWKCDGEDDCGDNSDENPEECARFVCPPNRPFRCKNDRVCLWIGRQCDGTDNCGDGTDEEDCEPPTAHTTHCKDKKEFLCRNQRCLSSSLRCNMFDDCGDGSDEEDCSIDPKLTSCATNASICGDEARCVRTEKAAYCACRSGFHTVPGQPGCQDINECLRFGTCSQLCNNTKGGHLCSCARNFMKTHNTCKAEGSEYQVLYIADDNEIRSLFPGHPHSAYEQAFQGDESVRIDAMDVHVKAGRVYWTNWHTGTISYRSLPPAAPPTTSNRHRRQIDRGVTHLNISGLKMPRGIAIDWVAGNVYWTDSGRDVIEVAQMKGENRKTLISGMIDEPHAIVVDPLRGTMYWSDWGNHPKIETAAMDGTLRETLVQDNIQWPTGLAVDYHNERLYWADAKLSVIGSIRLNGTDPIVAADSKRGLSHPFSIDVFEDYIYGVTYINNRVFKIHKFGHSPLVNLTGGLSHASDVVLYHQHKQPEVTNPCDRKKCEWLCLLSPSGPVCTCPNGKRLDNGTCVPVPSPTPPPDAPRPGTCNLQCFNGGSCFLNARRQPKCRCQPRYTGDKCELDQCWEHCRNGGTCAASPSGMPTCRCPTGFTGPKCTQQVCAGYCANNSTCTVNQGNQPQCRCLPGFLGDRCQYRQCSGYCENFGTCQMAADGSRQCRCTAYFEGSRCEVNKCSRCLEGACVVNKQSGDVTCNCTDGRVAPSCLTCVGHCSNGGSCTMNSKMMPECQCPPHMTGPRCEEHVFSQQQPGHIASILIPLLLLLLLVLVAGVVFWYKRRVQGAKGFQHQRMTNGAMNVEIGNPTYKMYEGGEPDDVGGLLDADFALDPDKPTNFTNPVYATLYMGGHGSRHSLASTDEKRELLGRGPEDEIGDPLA

No constants are given. Whether binding was seen depends on the method and setting. In cells and extracts the contact can be indirect. Some entries that bind do so weakly or less than the wild type.

The target of the experiment is low-density lipoprotein receptor-related protein 1 (LRP1), surface receptor on macrophages (human (endogenous in THP-1)) (UniProt Q07954). Kind of experiment: co-IP; cell protein extract of THP-1 cells co-cultured with U87MG, U251MG or T98MG (THP1^U87MG, THP1^U251MG, THP1^T98MG); IP antibody overnight at 4 °C, protein A/G beads, IgG of the same species as negative control, WB detection; which protein was precipitated is not told.

B1: midkine (MDK) secreted by GBM cells (ligand, UniProt P21741 21-143)
chain: VAKKKDKVKKGGPGSECAEWAWGPCTPSSKDCGVGFREGTCGAQTQRIRCRVPCNWKKEFGADCKYKFENWGACDGGTGTKVRQGTLKKARYNAQCQETIRVTKPCTPKTKAKAKAKKGKGKD
In the case of B1, the binding result was “binds”.
